These are yes or no findings as the source states them, for the method shown. In cells and extracts the contact can be indirect. Some results given as binding are weak or reduced against the parent protein; the word gives no strength.
How the values were obtained:
[1] = target: human CD93 on cells (CD93-transfected HEK293T cells; endogenous on HUVEC cells) (human) (UniProt Q9NPY3); experiment: co-immunoprecipitation from HUVEC lysate with a CD93 mAb, blot (FIG. 4D)
[2] = target: human CD93 on cells (CD93-transfected HEK293T cells; endogenous on HUVEC cells) (human) (UniProt Q9NPY3); experiment: co-immunoprecipitation from HUVEC cell lysate with CD93 mAb, blot for IGFBP7

By UniProt entry, the sequences of proteins in these tests, tags left out. Where a name states a change or a piece, a line headed by the entry shows the natural chain unless it says otherwise.
UniProt Q9NPY3: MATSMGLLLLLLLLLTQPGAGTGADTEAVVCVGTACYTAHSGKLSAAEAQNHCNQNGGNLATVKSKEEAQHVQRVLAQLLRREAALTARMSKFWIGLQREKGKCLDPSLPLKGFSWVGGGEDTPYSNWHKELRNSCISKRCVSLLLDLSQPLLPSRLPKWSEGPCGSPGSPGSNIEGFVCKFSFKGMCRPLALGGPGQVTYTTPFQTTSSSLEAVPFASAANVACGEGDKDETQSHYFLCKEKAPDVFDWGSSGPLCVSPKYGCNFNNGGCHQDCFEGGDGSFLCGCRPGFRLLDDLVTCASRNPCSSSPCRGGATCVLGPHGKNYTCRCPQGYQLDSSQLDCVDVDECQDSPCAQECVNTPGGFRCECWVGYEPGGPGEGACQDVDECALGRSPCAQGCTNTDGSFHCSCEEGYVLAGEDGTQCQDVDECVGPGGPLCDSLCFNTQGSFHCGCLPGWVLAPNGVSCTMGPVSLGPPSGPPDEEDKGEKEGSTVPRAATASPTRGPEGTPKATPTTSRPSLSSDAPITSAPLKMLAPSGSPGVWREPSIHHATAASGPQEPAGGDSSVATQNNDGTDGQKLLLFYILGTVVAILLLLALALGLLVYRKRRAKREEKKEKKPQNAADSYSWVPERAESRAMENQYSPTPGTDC

B1: human IGFBP7 (expression construct in the GSRA library; endogenous in HUVEC lysate; exogenous IGFBP7 protein) (ligand)
chain: SSSDTCGPCEPASCPPLPPLGCLLGETRDACGCCPMCARGEGEPCGGGGAGRGYCAPGMECVKSRKRRKGKAGAAAGGPGVSGVCVCKSRYPVCGSDGTTYPSGCQLRAASQRAESRGEKAITQVSKGTCEQGPSIVTPPKDIWNVTGAQVYLSCEVIGIPTPVLIWNKVKRGHYGVQRTELLPGDRDNLAIQTRGGPEKHEVTGWVLVSPLSKEDAGEYECHASNSQGQASASAKITVVDALHEIPVKKGEGAEL
binding [1]: binds | binding [2]: binds
